PubChem BioAssay AID1259261, Sanger Institute | 2017
Test: 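siRNA screen across the kinome for kinases that are essential and partners synergising with drugs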 (primary screen). System: HCC2998 human colorectal cancer cells. Reagents: siRNA pool against human genes. Challenge: anchor drugs BYL719 1 µM, cetuximab 5 µg/ml or trametinib 10 nM, each compared with DMSO vehicle. Detection: 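Cell viability relative to non-targeting siRNA, averaged over replicates, with robust z-score for siRNA alone and synergy scores with each anchor drug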. Reading the numbers: viability z-score, knock-down alone: higher = more viable cells than controls; viability fraction, knock-down alone: higher = more viable cells; synergy score with BYL719: higher = stronger combined killing with BYL719; synergy score with trametinib: higher = stronger combined killing with trametinib. Rule for the call: 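a knock-down is called essential if its robust z-score without drug is under -3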. Meaning of the calls: active = essential; inactive = no change.
This is a random part of 794 deposited reagents. In the full data, 10 (1.3%) are marked active. 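Calls reflect knock-down alone without drug; synergy scores with BYL719, cetuximab or trametinib do not affect calls.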 Viability is capped at 1. Further read-outs or replicates are left out here. Reagent sequences are not shown. Not stated in the record: the amount of reagent, the time to read-out.

gene symbol	viability z-score, knock-down alone	viability fraction, knock-down alone	synergy score with BYL719	synergy score with trametinib	Outcome
LRRK2	1.21	1	0.105	0.153	inactive
WNK3	1.13	0.991	-0.117	-0.0459	inactive
ACVR1B	1.07	0.983	0.035	0.0836	inactive
MAP3K10	0.426	0.902	-0.0718	0.00855	inactive
RELA	-0.236	0.819	-0.0363	0.0233	inactive
CERT1	0.556	0.919	0.0339	0.0831	inactive
GUCY2D	-3.07	0.464	-0.0487	-0.0171	active
ELP1	1.12	0.99	-0.112	0.0462	inactive
PMVK	0.651	0.93	-0.0783	0.0805	inactive
AKT3	-2.44	0.543	-0.13	-0.00896	inactive
PHKG2	-0.0797	0.839	-0.138	0.00431	inactive
PDGFRA	1.08	0.984	0.0302	0.0933	inactive
TCF12	-0.115	0.834	0.0437	0.0454	inactive
TK2	-0.694	0.762	-0.2	-0.00554	inactive
NEK5	1.21	1	-0.0761	-0.166	inactive
PAK2	-0.32	0.809	-0.0335	0.119	inactive
GUCY2EP	-1.12	0.708	0.0226	0.0321	inactive
ACVR2A	-0.804	0.748	-0.0427	-0.0417	inactive
CILK1	1.21	1	0.0542	0	inactive
RPS6KA4	0.627	0.928	-0.0989	0.123	inactive
CDKL3	0.408	0.9	-0.114	0.0914	inactive
MARK4	-1.38	0.675	-0.0868	0	inactive
NTRK2	-0.146	0.831	-0.0829	-0.0593	inactive
PIP4K2C	-0.725	0.758	-0.106	0.0601	inactive
STK25	0.536	0.916	0.0303	0.231	inactive
EPHA3	0.0517	0.855	0.0398	0.108	inactive
CKS2	1.13	0.991	-0.117	-0.0611	inactive
CEP290	0.194	0.873	-0.157	-0.0082	inactive
STK40	0.588	0.923	-0.0479	-0.0268	inactive
WNK2	1.21	1	-0.00836	-0.0599	inactive
PKMYT1	0.696	0.936	0.00144	0.0463	inactive
NUP62	-1.38	0.676	-0.0325	0.0871	inactive
MAP3K21	0.29	0.885	0.0151	0.112	inactive
TNK1	1.04	0.979	-0.0275	-0.0586	inactive
MYLK	-0.0226	0.846	0.0309	0.118	inactive
PKDCC	0.842	0.954	-0.102	-0.0195	inactive
PFKP	0.37	0.895	0.142	0.239	inactive
DLG1	0.396	0.899	-0.0182	0.0629	inactive
DDR2	0.168	0.87	0.0191	0.0308	inactive
PDXK	1.21	1	-0.0493	0.0664	inactive
CSNK1G3	0.653	0.931	0.113	0.0984	inactive
LMBR1	-0.081	0.839	-0.249	0.0481	inactive
MAPK4	0.384	0.897	0.0843	0.14	inactive
TNNI3K	0.959	0.969	-0.0384	0.101	inactive
CSNK1G2	-0.0738	0.84	0.0253	0.0512	inactive
EPHB6	1.21	1	-0.00837	0.0906	inactive
NEK8	-0.669	0.765	-0.0818	-0.156	inactive
ACVR1	-0.252	0.817	-0.129	0.0188	inactive
ADCK5	-0.742	0.756	-0.127	-0.0386	inactive
IGF2R	1.21	1	-0.0132	-0.0192	inactive
SMG1	0.0075	0.85	-0.0619	-0.0114	inactive
HIPK4	0.824	0.952	-0.0252	-0.103	inactive
PANK4	-1.05	0.717	0.0749	-0.026	inactive
PRKY	-0.213	0.822	-0.052	0.0169	inactive
CDKN2D	-0.527	0.783	0.0874	0.216	inactive
GALK2	-0.199	0.824	0.00244	0.114	inactive
GRK2	1.21	1	-0.109	-0.0815	inactive
ARID1A	-1.29	0.687	-0.13	-0.000167	inactive
DNMT3A	-0.492	0.787	-0.146	-0.106	inactive
MAP3K11	0.195	0.873	0.00449	0.0479	inactive
PRKCE	-0.378	0.801	0.0419	0.0237	inactive
CAMKK2	0.0588	0.856	-0.00943	0.0641	inactive
EFNA3	-0.0589	0.841	0.0247	0.12	inactive
